pIC50: −log10 of the molar value. The match of structure and compound is tentative.
Target: human factor XIa (Homo sapiens, UniProt P03951)
Assay: Screening test of enzyme inhibitory activity on hFXIa
Conditions: read-out: hFXIa IC50; substrate S-2366/S-2306, 37° C. 10 minutes, absorbance 405 nm, pH 7.4
Method: 1. Screening Test of Enzyme Inhibitory Activity on hFXIa (Human Factor XIa)
Purpose of the Experiment:
Detection of the inhibitory activity of the compounds of the present disclosure on human factor XIa
1) Experimental buffer pH 7.4
100 mM Tris-HCl (Sigma, catalog number: T2663, batch number: SLBG2775)
200 mM NaCl (Sigma, catalog number: 13423, batch number: SZBB2360V)
2) Enzymes and Substrates
Enzyme, Human Factor XIa (Human Factor XIa, Abcam, Cat #ab62411): Total amount: 50 μg. Dissolved with experimental buffer and packed separately.
Substrate S-2366 (DiaPharma, catalog number: S821090): 25 mg
3) Instruments and Consumables
SpectraMax 340PC Multifunctional Microplate Reader (Molecular Devices)
384-well black transparent reaction plate (Corning Cata #3712)
Echo Liquid Workstation (Labcyte)
Echo 384-well polypropylene compound plate (Labcyte-P-05525) was used.
Echo 384 Shallow Pore Polypropylene Compound plate (Labcyte-LP-0200, 2.5-12 μL) was used.
Multidrop automatic dispenser (Thermo Scientific)
Multidrop Consumables (Thermo Scientific-24073290)
Compounds to be tested were dissolved in DMSO to form a 10 mM solution and stored in a nitrogen cabinet.
All test compounds were prepared using Echo, serially diluted and 100 nL of the compound solution was transferred to a 384-well reaction plate. Reference compounds and samples to be tested started at 200 μM (the final concentration of reaction started at 1 μM), 3-fold diluted, 10 points. High signal wells were DMSO and low signal wells were 100 μM reference compound. See Sample Distribution for sample and control distributions.
2) Human Factor XIa Enzyme Preparation
The human factor XIa enzyme was diluted to 0.5 μg/mL using experimental buffer.
3) Substrate S-2306 Preparation
A concentration of 1 mM of S-2306 was prepared with experimental buffer solution.
4) 10 μL of 0.5 μg/mL human factor XIa enzyme was added to the reaction plate using Multidrop automatic separator, and the final concentration was 5 ng/well
5) 10 μL of 1 mM S-2306 was added to the reaction plate using Multidrop automatic separator, and the final concentration was 0.5 mM.
7) The reaction plate was placed in SpectraMax 340PC and incubated at 37° C. for 10 minutes, and the absorbance was detected at 405 nm.
8) Data were analyzed using GraphPad Prism 5.0
% Inhibition rate=100%×[1−(sample reading-low signal average value)/(high signal average value-low signal average value)]
IC50 was analyzed using 4-factor linear regression:
Y=Bottom+(Top−Bottom)/(1+10^((Log IC50−X)*HillSlope))
Y was inhibition rate %, and X was the logarithm of sample concentration.

Chains of the proteins cited; added tags and fusions are not shown. Residues count along the entry.
UniProt P03951, 388-625 limits assumed: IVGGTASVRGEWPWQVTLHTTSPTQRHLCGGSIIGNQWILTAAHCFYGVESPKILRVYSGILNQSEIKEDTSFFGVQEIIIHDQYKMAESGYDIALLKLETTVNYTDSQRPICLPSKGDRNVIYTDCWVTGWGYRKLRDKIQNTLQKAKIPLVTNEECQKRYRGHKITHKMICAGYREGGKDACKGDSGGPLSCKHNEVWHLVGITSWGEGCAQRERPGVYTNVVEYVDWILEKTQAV
UniProt P03951, 19-387 partner limits assumed: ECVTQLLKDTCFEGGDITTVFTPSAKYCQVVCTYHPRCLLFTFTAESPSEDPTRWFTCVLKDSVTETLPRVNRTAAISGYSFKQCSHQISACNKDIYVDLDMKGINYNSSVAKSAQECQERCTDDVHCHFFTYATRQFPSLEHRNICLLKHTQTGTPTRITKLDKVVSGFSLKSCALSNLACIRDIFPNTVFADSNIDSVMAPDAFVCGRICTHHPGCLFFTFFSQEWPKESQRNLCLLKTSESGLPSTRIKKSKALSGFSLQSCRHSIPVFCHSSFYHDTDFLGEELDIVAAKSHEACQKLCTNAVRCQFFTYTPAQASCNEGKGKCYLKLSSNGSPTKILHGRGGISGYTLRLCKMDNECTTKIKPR

Row | SMILES | pIC50
1 | C[C@@H]1CCCC(c2cn(C)c(-c3cc(Cl)ccc3-n3cc(Cl)nn3)cc2=O)c2cc(ccn2)-c2c(cnn2C(F)F)NC1=O (stereo partly shown) | 8.04
2 | C[C@@H]1CCCC(c2coc(-c3c(-n4cc(Cl)nn4)ccc(Cl)c3F)cc2=O)c2cc(ccn2)-c2c(cnn2C)NC1=O (stereo partly shown) | 8.54
3 | C[C@@H]1CCCC(c2coc(-c3cc(Cl)ccc3-n3cc(Cl)nn3)cc2=O)c2cc(ccn2)-c2c(cnn2C(F)F)NC1=O (single isomer, unassigned) | 8.48
4 | C[C@@H]1CCCC(c2coc(-c3cc(Cl)ccc3-n3cnnn3)cc2=O)c2cc(ccn2)-c2c(cnn2C(F)F)NC1=O (single isomer, unassigned) | 8.28
